Measurements reported in PubChem BioAssay AID1224830 (NIAID, 2016)

- Screen: 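Host factors that control LPS-induced TNF expression in human macrophages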 (primary screen)
- Cell system: human THP-1 monocytic leukaemia cells, TNF dual-luciferase reporter clone, PMA-differentiated to macrophage-like cells
- Reagent: siRNA pool against human genes, 50 nM
- Duration: LPS for 4 h, given about 3 days after siRNA transfection
- Conditions: bacterial LPS (TLR4 ligand), 10 ng/ml
- Measured: 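TNF firefly reporter luminescence divided by renilla, normalised to the plate median, then turned into a robust z-score for each replicate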
- Scale: TNF reporter robust z-score: higher = stronger TNF reporter response to LPS
- Hit rule: 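a well is active when its z-score exceeds 2.8 or falls below -1.5; control wells carry no call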
The whole screen tested about 18,000 reagents; this is a part drawn at random. Over the whole deposit, about 2,900 (16%) got an active call. 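Calls are made per well; low scores hint the gene aids the LPS response, high scores that it dampens it.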 Reagents against one gene are numbered here. Repeated entries: four replicate wells of each siRNA pool.

TNF reporter robust z-score,Call,gene knocked down,reagent no.
1.16,inactive,CAPN15 (calpain 15),1
0.87,inactive,CAPN15 (calpain 15),1
-0.36,inactive,CAPN15 (calpain 15),1
0.58,inactive,CAPN15 (calpain 15),1
4.21,active,LOC402715 (karyopherin subunit alpha 2 pseudogene),1
1.12,inactive,LOC402715 (karyopherin subunit alpha 2 pseudogene),1
1.55,inactive,LOC402715 (karyopherin subunit alpha 2 pseudogene),1
1.32,inactive,LOC402715 (karyopherin subunit alpha 2 pseudogene),1
-0.53,inactive,MOB2 (MOB kinase activator 2),1
1.62,inactive,MOB2 (MOB kinase activator 2),1
1.07,inactive,MOB2 (MOB kinase activator 2),1
0.43,inactive,MOB2 (MOB kinase activator 2),1
,inactive,THAP1 (THAP domain containing 1),1
-0.45,inactive,THAP1 (THAP domain containing 1),1
-0.03,inactive,THAP1 (THAP domain containing 1),1
-0.25,inactive,THAP1 (THAP domain containing 1),1
-0.63,inactive,THAP1 (THAP domain containing 1),1
0.17,inactive,LNP1 (leukemia NUP98 fusion partner 1),1
1.39,inactive,LNP1 (leukemia NUP98 fusion partner 1),1
1.34,inactive,LNP1 (leukemia NUP98 fusion partner 1),1
1.79,inactive,LNP1 (leukemia NUP98 fusion partner 1),1
0.09,inactive,ATF5 (activating transcription factor 5),1
0.47,inactive,ATF5 (activating transcription factor 5),1
0.54,inactive,ATF5 (activating transcription factor 5),1
0.8,inactive,ATF5 (activating transcription factor 5),1
-0.36,inactive,ARNT2 (aryl hydrocarbon receptor nuclear translocator 2),1
0.12,inactive,ARNT2 (aryl hydrocarbon receptor nuclear translocator 2),1
-0.45,inactive,ARNT2 (aryl hydrocarbon receptor nuclear translocator 2),1
-0.02,inactive,ARNT2 (aryl hydrocarbon receptor nuclear translocator 2),1
1.25,inactive,INTS4 (integrator complex subunit 4),1
1.1,inactive,INTS4 (integrator complex subunit 4),1
0.08,inactive,INTS4 (integrator complex subunit 4),1
1.53,inactive,INTS4 (integrator complex subunit 4),1
0.67,inactive,GTF2B (general transcription factor IIB),1
1.07,inactive,GTF2B (general transcription factor IIB),1
0.65,inactive,GTF2B (general transcription factor IIB),1
1.25,inactive,GTF2B (general transcription factor IIB),1
-1.85,active,ACVRL1 (activin A receptor like type 1),1
-1.56,active,ACVRL1 (activin A receptor like type 1),1
-1.06,inactive,ACVRL1 (activin A receptor like type 1),1
-0.99,inactive,ACVRL1 (activin A receptor like type 1),1
0.45,inactive,ACSS2 (acyl-CoA synthetase short chain family member 2),1
0.18,inactive,ACSS2 (acyl-CoA synthetase short chain family member 2),1
0.23,inactive,ACSS2 (acyl-CoA synthetase short chain family member 2),1
0.4,inactive,ACSS2 (acyl-CoA synthetase short chain family member 2),1
0.33,inactive,KRTAP10-11 (keratin associated protein 10-11),1
0.61,inactive,KRTAP10-11 (keratin associated protein 10-11),1
-0.63,inactive,KRTAP10-11 (keratin associated protein 10-11),1
1.18,inactive,KRTAP10-11 (keratin associated protein 10-11),1
-1.55,active,ZNRF4 (zinc and ring finger 4),1
-1.06,inactive,ZNRF4 (zinc and ring finger 4),1
-0.1,inactive,ZNRF4 (zinc and ring finger 4),1
1.19,inactive,ZNRF4 (zinc and ring finger 4),1
0.14,inactive,KDM5B (lysine demethylase 5B),1
0.01,inactive,KDM5B (lysine demethylase 5B),1
-0.28,inactive,KDM5B (lysine demethylase 5B),1
25.1,active,KDM5B (lysine demethylase 5B),1
0.51,inactive,LACTB2 (lactamase beta 2),1
1.47,inactive,LACTB2 (lactamase beta 2),1
0.19,inactive,LACTB2 (lactamase beta 2),1
1.06,inactive,LACTB2 (lactamase beta 2),1
-1.94,active,FSAF1 (40S small subunit processome assembly factor 1),1
-2.02,active,FSAF1 (40S small subunit processome assembly factor 1),1
-1.56,active,FSAF1 (40S small subunit processome assembly factor 1),1
-1.9,active,FSAF1 (40S small subunit processome assembly factor 1),1
-1.45,inactive,USP20 (ubiquitin specific peptidase 20),1
0.06,inactive,USP20 (ubiquitin specific peptidase 20),1
-0.91,inactive,USP20 (ubiquitin specific peptidase 20),1
0.03,inactive,USP20 (ubiquitin specific peptidase 20),1
2.51,inactive,ASB6 (ankyrin repeat and SOCS box containing 6),1
0.23,inactive,ASB6 (ankyrin repeat and SOCS box containing 6),1
0.85,inactive,ASB6 (ankyrin repeat and SOCS box containing 6),1
0.72,inactive,ASB6 (ankyrin repeat and SOCS box containing 6),1
0.01,inactive,GAS7 (growth arrest specific 7),1
0.22,inactive,GAS7 (growth arrest specific 7),1
0.64,inactive,GAS7 (growth arrest specific 7),1
0.06,inactive,GAS7 (growth arrest specific 7),1
0.71,inactive,RPN2 (ribophorin II),1
-0.26,inactive,RPN2 (ribophorin II),1
-0.29,inactive,RPN2 (ribophorin II),1
-1.91,active,RPN2 (ribophorin II),1
-0.6,inactive,CLOCK (clock circadian regulator),1
0.15,inactive,CLOCK (clock circadian regulator),1
0.88,inactive,CLOCK (clock circadian regulator),1
0.74,inactive,CLOCK (clock circadian regulator),1
-0.9,inactive,WDR77 (WD repeat domain 77),1
-1.02,inactive,WDR77 (WD repeat domain 77),1
-0.33,inactive,WDR77 (WD repeat domain 77),1
-0.52,inactive,WDR77 (WD repeat domain 77),1
0.73,inactive,CRIM1 (cysteine rich transmembrane BMP regulator 1),1
0.89,inactive,CRIM1 (cysteine rich transmembrane BMP regulator 1),1
0.18,inactive,CRIM1 (cysteine rich transmembrane BMP regulator 1),1
0.34,inactive,CRIM1 (cysteine rich transmembrane BMP regulator 1),1
-1.16,inactive,PLA2G2D (phospholipase A2 group IID),1
-0.59,inactive,PLA2G2D (phospholipase A2 group IID),1
-1.39,inactive,PLA2G2D (phospholipase A2 group IID),1
-1.28,inactive,PLA2G2D (phospholipase A2 group IID),1
-0.26,inactive,TAS2R38 (taste 2 receptor member 38),1
-0.37,inactive,TAS2R38 (taste 2 receptor member 38),1
-0.58,inactive,TAS2R38 (taste 2 receptor member 38),1
-0.86,inactive,TAS2R38 (taste 2 receptor member 38),1
-0.8,inactive,LMNA (lamin A/C),1
-0.17,inactive,LMNA (lamin A/C),1
0.16,inactive,LMNA (lamin A/C),1
0.31,inactive,LMNA (lamin A/C),1
2.66,inactive,ZDHHC2 (zDHHC palmitoyltransferase 2),1
1.09,inactive,ZDHHC2 (zDHHC palmitoyltransferase 2),1
1.34,inactive,ZDHHC2 (zDHHC palmitoyltransferase 2),1
1.76,inactive,ZDHHC2 (zDHHC palmitoyltransferase 2),1
1.91,inactive,TOR1AIP2 (torsin 1A interacting protein 2),1
1.8,inactive,TOR1AIP2 (torsin 1A interacting protein 2),1
1.68,inactive,TOR1AIP2 (torsin 1A interacting protein 2),1
2.49,inactive,TOR1AIP2 (torsin 1A interacting protein 2),1
0.36,inactive,TOR1AIP2 (torsin 1A interacting protein 2),2
1.11,inactive,TOR1AIP2 (torsin 1A interacting protein 2),2
1.97,inactive,TOR1AIP2 (torsin 1A interacting protein 2),2
1.46,inactive,TOR1AIP2 (torsin 1A interacting protein 2),2

Hits, of those listed so far:
TNF reporter robust z-score,Call,gene knocked down,reagent no.
4.21,active,LOC402715 (karyopherin subunit alpha 2 pseudogene),1
-1.85,active,ACVRL1 (activin A receptor like type 1),1
-1.56,active,ACVRL1 (activin A receptor like type 1),1
-1.55,active,ZNRF4 (zinc and ring finger 4),1
25.1,active,KDM5B (lysine demethylase 5B),1
-1.94,active,FSAF1 (40S small subunit processome assembly factor 1),1
-2.02,active,FSAF1 (40S small subunit processome assembly factor 1),1
-1.56,active,FSAF1 (40S small subunit processome assembly factor 1),1
-1.9,active,FSAF1 (40S small subunit processome assembly factor 1),1
-1.91,active,RPN2 (ribophorin II),1
